± gives the standard deviation of the averaged measurements. Some of the results follow.
Compound: Nc1nc2c(ncn2[C@@H]2O[C@H](COP(=O)(O)OP(=O)(O)OP(=O)(O)O)[C@@H](O)[C@H]2O)c(=O)[nH]1 [guanosine triphosphate]
Assay: NP40-soluble protein abundance relative to vehicle (solubility fold change) (ratio); higher = more soluble protein in presence of GTP
Protocol: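 Solubility proteome profiling in Jurkat crude lysate. Lysate was treated with Mg-GTP (0.1-10 mM) for 10 min at room temperature and 3 min at 37 °C, then solubilised with 0.8% NP40 and benzonase, followed by ultracentrifugation. Proteins were quantified by TMT10 LC-MS/MS; the value is the NP40-soluble abundance relative to the NP40-processed vehicle, from 3 independent experiments.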

By UniProt entry, the sequences of proteins in these tests, tags left out. Where a name states a change or a piece, a line headed by the entry shows the natural chain unless it says otherwise.
UniProt P15170, whole entry: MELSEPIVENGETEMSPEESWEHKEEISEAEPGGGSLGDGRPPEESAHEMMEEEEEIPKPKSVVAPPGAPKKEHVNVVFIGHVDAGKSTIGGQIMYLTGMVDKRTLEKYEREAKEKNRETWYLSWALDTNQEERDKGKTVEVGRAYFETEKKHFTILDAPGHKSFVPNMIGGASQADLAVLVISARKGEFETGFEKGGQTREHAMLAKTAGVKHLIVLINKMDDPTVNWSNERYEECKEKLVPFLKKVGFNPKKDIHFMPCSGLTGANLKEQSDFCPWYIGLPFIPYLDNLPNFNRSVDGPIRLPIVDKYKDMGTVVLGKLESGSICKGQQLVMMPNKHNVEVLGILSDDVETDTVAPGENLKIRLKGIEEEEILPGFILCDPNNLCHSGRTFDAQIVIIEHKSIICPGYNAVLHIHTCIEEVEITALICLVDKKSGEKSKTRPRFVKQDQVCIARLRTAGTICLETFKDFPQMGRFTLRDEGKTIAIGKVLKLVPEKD
UniProt P16591: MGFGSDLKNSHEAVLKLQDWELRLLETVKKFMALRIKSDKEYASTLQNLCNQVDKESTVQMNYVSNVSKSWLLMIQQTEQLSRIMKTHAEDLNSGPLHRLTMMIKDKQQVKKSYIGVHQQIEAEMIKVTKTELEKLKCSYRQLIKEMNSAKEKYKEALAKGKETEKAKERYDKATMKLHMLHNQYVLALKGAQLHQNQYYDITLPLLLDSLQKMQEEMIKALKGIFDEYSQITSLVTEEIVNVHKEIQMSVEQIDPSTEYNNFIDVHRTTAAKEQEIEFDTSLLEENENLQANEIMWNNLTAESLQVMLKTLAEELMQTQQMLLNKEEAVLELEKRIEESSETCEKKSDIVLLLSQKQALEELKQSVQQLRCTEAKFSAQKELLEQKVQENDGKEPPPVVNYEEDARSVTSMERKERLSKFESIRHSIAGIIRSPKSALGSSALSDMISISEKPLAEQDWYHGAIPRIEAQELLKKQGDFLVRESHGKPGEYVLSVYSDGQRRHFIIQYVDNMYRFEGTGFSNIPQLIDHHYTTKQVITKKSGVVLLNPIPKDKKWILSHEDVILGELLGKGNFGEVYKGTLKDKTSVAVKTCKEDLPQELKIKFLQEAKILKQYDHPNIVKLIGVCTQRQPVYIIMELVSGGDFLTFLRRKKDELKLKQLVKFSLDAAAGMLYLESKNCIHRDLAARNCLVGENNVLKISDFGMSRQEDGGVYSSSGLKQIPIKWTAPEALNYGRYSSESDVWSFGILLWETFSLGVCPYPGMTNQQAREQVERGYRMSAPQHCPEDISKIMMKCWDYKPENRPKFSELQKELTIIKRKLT
UniProt P17098: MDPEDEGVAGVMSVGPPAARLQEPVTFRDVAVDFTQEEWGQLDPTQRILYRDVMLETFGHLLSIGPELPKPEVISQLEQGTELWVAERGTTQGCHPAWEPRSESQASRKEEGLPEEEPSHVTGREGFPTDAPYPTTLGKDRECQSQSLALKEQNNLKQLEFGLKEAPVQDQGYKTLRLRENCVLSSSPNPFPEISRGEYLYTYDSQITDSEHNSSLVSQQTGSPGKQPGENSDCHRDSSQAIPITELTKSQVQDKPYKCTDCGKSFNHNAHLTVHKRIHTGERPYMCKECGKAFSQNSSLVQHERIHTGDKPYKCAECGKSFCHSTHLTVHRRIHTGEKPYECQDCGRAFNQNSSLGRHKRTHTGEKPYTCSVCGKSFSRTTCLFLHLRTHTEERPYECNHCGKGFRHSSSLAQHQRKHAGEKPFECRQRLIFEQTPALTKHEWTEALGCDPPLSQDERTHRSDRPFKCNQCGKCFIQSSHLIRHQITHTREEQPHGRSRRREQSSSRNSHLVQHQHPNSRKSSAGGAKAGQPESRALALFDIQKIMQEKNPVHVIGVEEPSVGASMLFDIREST
UniProt P08648, whole entry: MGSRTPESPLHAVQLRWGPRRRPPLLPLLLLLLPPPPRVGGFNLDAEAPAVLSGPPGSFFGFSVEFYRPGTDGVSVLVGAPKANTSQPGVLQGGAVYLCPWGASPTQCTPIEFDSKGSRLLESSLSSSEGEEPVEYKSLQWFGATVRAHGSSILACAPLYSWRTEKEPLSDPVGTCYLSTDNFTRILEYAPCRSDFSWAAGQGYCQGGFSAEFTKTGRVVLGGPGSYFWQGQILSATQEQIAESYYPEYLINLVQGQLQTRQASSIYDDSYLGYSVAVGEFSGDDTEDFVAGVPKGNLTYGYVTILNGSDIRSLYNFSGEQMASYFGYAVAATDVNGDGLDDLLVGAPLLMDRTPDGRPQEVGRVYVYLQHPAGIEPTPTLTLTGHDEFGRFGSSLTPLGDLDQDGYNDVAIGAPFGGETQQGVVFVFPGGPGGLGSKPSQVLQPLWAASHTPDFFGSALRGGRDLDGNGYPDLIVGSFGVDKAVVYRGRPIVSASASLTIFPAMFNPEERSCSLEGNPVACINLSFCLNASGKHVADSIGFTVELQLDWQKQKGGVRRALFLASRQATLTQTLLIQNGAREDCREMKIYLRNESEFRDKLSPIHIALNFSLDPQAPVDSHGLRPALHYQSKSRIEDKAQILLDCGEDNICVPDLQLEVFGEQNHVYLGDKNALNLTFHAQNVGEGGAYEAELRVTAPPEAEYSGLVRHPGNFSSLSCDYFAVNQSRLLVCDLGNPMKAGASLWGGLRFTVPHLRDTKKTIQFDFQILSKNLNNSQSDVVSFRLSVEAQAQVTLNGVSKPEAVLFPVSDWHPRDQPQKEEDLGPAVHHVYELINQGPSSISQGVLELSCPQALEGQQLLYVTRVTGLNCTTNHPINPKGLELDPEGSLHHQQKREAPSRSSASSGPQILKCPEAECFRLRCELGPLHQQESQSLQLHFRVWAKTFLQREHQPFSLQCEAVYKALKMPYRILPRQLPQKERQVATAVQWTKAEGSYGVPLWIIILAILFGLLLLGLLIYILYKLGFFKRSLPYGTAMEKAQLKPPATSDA

Target	NP40-soluble protein abundance (concentration: 0.1mM)	NP40-soluble protein abundance (concentration: 0.5mM)	NP40-soluble protein abundance (concentration: 1mM)	NP40-soluble protein abundance (concentration: 2mM)	NP40-soluble protein abundance (concentration: 4mM)	NP40-soluble protein abundance (concentration: 6mM)	NP40-soluble protein abundance (concentration: 8mM)	NP40-soluble protein abundance (concentration: 10mM)
UniProt P15170-2|P15170-3	0.903 ± 0.05	0.946 ± 0.05	0.89 ± 0.051	0.862 ± 0.048	0.839 ± 0.044	0.863 ± 0.057	0.853 ± 0.054	0.856 ± 0.051
UniProt P22694 and related entries	1.09 ± 0.11	1.1 ± 0.14	0.937 ± 0.089	1.05 ± 0.15	0.984 ± 0.11	1.02 ± 0.12	0.916 ± 0.068	0.974 ± 0.11
FER (UniProt P16591)	1.01 ± 0.042	1.04 ± 0.064	1.04 ± 0.085	1.05 ± 0.11	1.04 ± 0.085	1.04 ± 0.13	1.01 ± 0.1	0.955 ± 0.057
ZNF8 (UniProt P17098)	0.987 ± 0.11	0.998 ± 0.11	0.967 ± 0.071	1 ± 0.12	0.952 ± 0.071	0.927 ± 0.091	0.995 ± 0.13	1.01 ± 0.1
ITGA5 (UniProt P08648)	0.905 ± 0.069	0.881 ± 0.074	0.978 ± 0.096	0.957 ± 0.1	0.985 ± 0.085	0.96 ± 0.057	0.953 ± 0.077	1.02 ± 0.082

From the supplement of paper PMC6411743
